Results published in US20050175608A1 (Kyowa Kirin, published 2005).
Substitutions are numbered along the chain they refer to. No constants are given. Whether binding was seen depends on the method and setting. A result given as binding can be weak or reduced; the word gives no strength. Blank lines part the entries; values can stand above or below the binder they belong to.

How the values were obtained:
[1] = molecular target: FGF-8 (manufactured by R & D) (Homo sapiens (Human)); assay: BIAcore 2000, immobilised FGF-8
[2] = molecular target: FGF-8 (manufactured by R & D) (Homo sapiens (Human)); assay: BIAcore 2000, FGF-8 amine-coupled to CM5 chip (4498 RU), antibody 50 µg/mL; almost no dissociation observed
[3] = molecular target: FGF-8 (manufactured by R & D) (Homo sapiens (Human)); assay: BIAcore 2000, immobilised FGF-8 (results of Reference Example 2)

binding [1]: binds
binding [2]: binds
binding [3]: binds
B1: anti-FGF-8 neutralizing CDR-grafted antibody HV0LV6 (antibody, V domains shown)
VH: QVQLVQSGAEVKKPGASVKVSCKASGYTFTDYYLNWVRQAPGQGLEWMGEIDPGSDSIYYNENLEGRVTITADTSTSTAYMELSSLRSEDTAVYYCARYGYSRYDVRFVYWGQGTLVTVSS
VL: DVVMTQSPLSLPVSLGEPASISCRSSQSLVHSNGRTYLEWYLQKPGQSPKVLIYKVSNRISGVPDRFSGSGSGTDFTLKISRVEAEDVGVYFCFQGSHVPYTFGQGTKVEIK
notes: HV.0 + LV.6; YB2/0 cell-derived; also called KM8037

binding [2]: binds
B2: anti-FGF-8 neutralizing chimeric antibody KM3334 (antibody, V domains shown)
VH: QVQLQQSGAEVARPGASVKLSCKASGYTFTDYYLNWVKQRSGQGLEWIGEIDPGSDSIYYNENLEGRATLTADKSSSTAYMQLNSLTSEDSAVYFCARYGYSRYDVRFVYWGQGTLVTVST
VL: B1 VL with V3L, S7T, E17D, P18Q, V88L, Q105G, V109L
notes: expressed in YB2/0 cells; also called human chimeric antibody KM3334

binding [2]: binds
B3: anti-FGF-8 neutralizing CDR-grafted antibody HV0LV0 (antibody, V domains shown)
VH: B1 VH
VL: B1 VL with V2I, S14T, L15P, K50Q, V51L, F92Y
notes: HV.0 + LV.0

binding [2]: binds
B4: anti-FGF-8 neutralizing CDR-grafted antibody HV6LV6 (antibody, V domains shown)
VH: B1 VH with K12A, K13R, A40R, P41S, M48I, Y95F
VL: B1 VL
notes: HV.6 + LV.6
